B1: TOM40 (protein, UniProt O96008 1-361)
chain: MGNVLAASSPPAGPPPPPAPALVGLPPPPPSPPGFTLPPLGGSLGAGTSTSRSSERTPGAATASASGAAEDGACGCLPNPGTFEECHRKCKELFPIQMEGVKLTVNKGLSNHFQVNHTVALSTIGESNYHFGVTYVGTKQLSPTEAFPVLVGDMDNSGSLNAQVIHQLGPGLRSKMAIQTQQSKFVNWQVDGEYRGSDFTAAVTLGNPDVLVGSGILVAHYLQSITPCLALGGELVYHRRPGEEGTVMSLAGKYTLNNWLATVTLGQAGMHATYYHKASDQLQVGVEFEASTRMQDTSVSFGYQLDLPKANLLFKGSVDSNWIVGATLEKKLPPLPLTLALGAFLNHRKNKFQCGFGLTIG
B2: SCO2 (protein, UniProt O43819 42-266)
chain: GPAETGGQGQPQGPGLRTRLLITGLFGAGLGGAWLALRAEKERLQQQKRTEALRQAAVGQGDFHLLDHRGRARCKADFRGQWVLMYFGFTHCPDICPDELEKLVQVVRQLEAEPGLPPVQPVFITVDPERDDVEAMARYVQDFHPRLLGLTGSTKQVAQASHSYRVYYNAGPKDEDQDYIVDHSIAIYLLNPDGLFTDYYGRSRSAEQISDSVRRHMAAFRSVLS

By UniProt entry, the sequences of proteins in these tests, tags left out. Where a name states a change or a piece, a line headed by the entry shows the natural chain unless it says otherwise.
UniProt Q83BS7: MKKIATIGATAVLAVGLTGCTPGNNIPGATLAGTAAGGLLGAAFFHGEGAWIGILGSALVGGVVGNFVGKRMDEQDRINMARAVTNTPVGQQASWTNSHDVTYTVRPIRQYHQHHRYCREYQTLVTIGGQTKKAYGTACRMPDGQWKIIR
UniProt Q15388: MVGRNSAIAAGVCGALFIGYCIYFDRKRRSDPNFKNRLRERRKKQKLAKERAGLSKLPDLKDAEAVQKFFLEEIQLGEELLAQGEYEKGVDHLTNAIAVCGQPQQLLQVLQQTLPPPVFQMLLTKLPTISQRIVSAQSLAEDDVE

No constants are given. Whether binding was seen depends on the method and setting. Binding seen in cells or lysates may run through a third protein. Here binding means that the protein was enriched with, or labelled near, the bait; the list need not be complete.

The target of the test is Mitochondrial Coxiella effector protein C (MceC, CBU1425) with C-terminal 3XFLAG (Coxiella burnetii) (UniProt Q83BS7). The test is described as follows: affinity purification with mass spectrometry.
Turning to “TOM20 (from UniProt Q15388 1-145) (receptor)”, the binding result is on record as “binds”.

For B1, the binding result is given as “binds”. Regarding B2, the binding result is “binds”.

The values above are taken from publication PMC7950127.
